Laboratory results published in PubChem BioAssay AID504444 (National Center for Advancing Translational Sciences (NCATS), 2011).
Hit rate of the full screen: of about 360,000 compounds, about 7,500 (2.1%) were called active. Inconclusive results, whose numbers are uncertain, are shown with a selection of clear calls. Calls follow the shape of the dose curve; as a rule, active = well fitted inhibition curve with a large enough effect; inconclusive = small, poorly fitted or top-dose-only effect, or effect the other way; inactive = flat fitted curve, though single readings scatter. A potency beside an inconclusive call is a rough fit, not a confirmed value.

Assay: Nrf2 qHTS screen for inhibitors; also: nearly all actives have a fitted effect of over 60% in size
Settings: A549 ARE-Fluc reporter, luciferase luminescence, 18-24 h; activity change, negative = inhibition: at 46 µM (top of the series)
Method in brief: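 A549 ARE_Fluc cells, 5000/well, 5% FBS OPTI-MEM; compounds in dose-response, 18-24 h at 37 °C/5% CO2; CellTiter-Fluor viability read (Ex 405/Em 525), then BugLite luciferase luminescence = Nrf2 activity.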
% is scaled to controls: 0 for no effect and ±100 for the full control effect; potency is read from the fitted curve at half-maximal effect.

| Compound | Potency | activity change, negative = inhibition |
| --- | --- | --- |
| COC(=O)Cc1ccc(NC(=S)N2CCCC(CO)C2)cc1 (stereo not drawn) | inconclusive: 20.6 µM [falling, single point] |  |
| O=C(COC(=O)c1nc(Cl)c(Cl)c(Cl)c1Cl)NCc1ccccc1 |  | inactive: 9.49% |
| N#Cc1ccccc1NC(=O)Nc1cccc(Cl)c1 | inconclusive: 3.26 µM [falling, partial curve, poor fit] |  |
| N#Cc1c(F)cccc1NCc1cccnc1 | inconclusive: 7.31 µM [falling, partial curve, poor fit] |  |
| CCC[C@@H]1CCCO[C@@](C(=O)NCCN2CCOCC2)(C(F)(F)F)C1 | inactive |  |
| Cc1ccc(Cn2c(=O)c3c(nc4n3CCN4Cc3ccco3)n(C)c2=O)cc1 | inconclusive: 32.6 µM [falling, single point] |  |
| O=C(CCCc1cccs1)Nc1ccc2c(c1)OCO2 | inconclusive: 5.17 µM [activator, full curve] |  |
| COc1ccc(NC(=S)N2CCC(C(=O)c3ccc(OC)cc3)CC2)cc1 | inconclusive: 7.31 µM [falling, partial curve, poor fit] |  |
| O=C(O)/C=C/c1cnn(-c2ccccc2)c1 | inconclusive: 1.64 µM [activator, full curve] |  |
| COc1cccc(-n2c(Cc3cc(=O)[nH]c(=O)[nH]3)nnc2SCC(=O)NC2CCCCC2)c1 | inconclusive: 4.61 µM [activator, partial curve, poor fit] |  |
| CC(C)CCN1C(=O)c2ccccc2CC1(C)C(=O)NC1CCC(C)CC1 (stereo not drawn) |  | inactive: -4.47% |
| Cc1ccc(CNC(=O)CC(C)S(=O)(=O)c2ccc3c(c2)NC(=O)C(C)S3)cc1 (stereo not drawn) | inconclusive: 18.4 µM [falling, single point] |  |
| O=C(c1ccccc1)c1ccc(C(=O)N2CCN(c3ccc(F)cc3)CC2)o1 | inconclusive: 32.6 µM [falling, single point] |  |
| CCn1c(=O)c([N+](=O)[O-])c(NCCc2ccc(OC)c(OC)c2)c2ccccc21 | inconclusive: 14.6 µM [falling, partial curve] |  |
| Cc1cccc(N(C(=O)Cc2cccs2)C(C(=O)NC2CCCC2)c2ccncc2)c1 (stereo not drawn) |  | inactive: -10.1% |
| CCC(CO)Oc1cc(NCc2cccnc2)c2ncn(C(C)C)c2c1 (stereo not drawn) |  | inactive: -10.1% |
| COC(=O)c1cc(S(=O)(=O)N2CCC(C)CC2)ccc1F | inconclusive: 14.6 µM [activator, single point] |  |
| Cn1c(=NC(=O)COc2ccccc2)sc2ccccc21 | inconclusive: 9.2 µM [activator, partial curve] |  |
| O=C(N/N=C/c1cccnc1)c1cccs1 | inconclusive: 11.6 µM [activator, partial curve, poor fit] |  |
| OC1(c2ccc3ccccc3c2)CCN(Cc2ccccc2)C1 (stereo not drawn) | inconclusive: 29.1 µM [activator, single point] |  |
| Nn1cnnc1N/N=C/c1ccc(F)cc1 |  | inactive: -14.1% |
| CC1CCCN(CCCNC(=O)c2coc3nc4ccccc4nc23)C1 (stereo not drawn) |  | inactive: 12.8% |
| O=C(N/N=C/c1ccc(F)cc1)c1ccccc1 | inconclusive: 3.66 µM [activator, full curve, poor fit] |  |

| Compound | Potency | activity change, negative = inhibition |
| --- | --- | --- |
| O=S(=O)(NCCNc1ncc(C(F)(F)F)cc1Cl)C(F)(F)F | inconclusive: 29.1 µM [falling, single point] |  |
| CN(C)C1=NCCN1CCc1cccc(F)c1 |  | inactive: 1.16% |
| CC(=O)Nc1ccc2sc(C)nc2c1 | inconclusive: 0.651 µM [falling, full curve, poor fit] |  |
| Cc1ccc(/C=C2\CCCC3=C2NC(=S)NC3c2ccc(C)cc2)cc1 (stereo not drawn) |  | inactive: 26.3% |
| COc1cc(CNCCCN2CCOCC2)c(Br)cc1OCC(=O)Nc1ccccc1C | inconclusive: 29.1 µM [activator, single point] |  |
| CC(=O)c1ccc(N2CCN(c3ccnc4cc(Cl)ccc34)CC2)cc1 | active: 1.64 µM |  |
| O=c1c2c3c(sc2nc2sc(C4CC4)nn12)CCCC3 | inconclusive: 5.8 µM [activator, partial curve] |  |
| Cc1ccc(/C=c2\sc3n(c2=O)CN(c2cccc(Br)c2)CN=3)o1 | inconclusive: 23.1 µM [falling, single point] |  |
| CCOC(=O)N1CCN(C(=O)c2ccc(CSc3ccc(Cl)cc3)cc2)CC1 | active: 18.4 µM |  |
| COc1cc2oc(=O)cc(-c3ccc(-c4ccc(F)c(Cl)c4)cc3)c2c(OC)c1OC | inconclusive: 29.1 µM [falling, single point] |  |
| CCn1cc(C(=O)N2CCCC2)c(=O)c2cc(S(=O)(=O)N3CCC(C)CC3)ccc21 |  | inactive: -6.41% |
| CCOc1ccccc1Nc1nnc(SCc2ccc(C(=O)OC)o2)s1 | inconclusive: 16.4 µM [falling, partial curve, poor fit] |  |
| CCN(CC)CCNC(=O)c1cc(-c2ccco2)nc2ccccc12 | inconclusive: 23.1 µM [activator, partial curve, poor fit] |  |
| CSc1ccccc1NC(=O)c1cnc2scc(C)n2c1=O | inconclusive: 10.3 µM [activator, partial curve, poor fit] |  |
| CCCCOc1cccc(C(=O)Nc2cccc(-c3nc4ncccc4o3)c2C)c1 | active: 16.4 µM |  |
| CC12CCC(C(=O)Nc3cccc4ccccc34)(C1Br)C2(C)C (stereo not drawn) | inconclusive: 18.4 µM [falling, partial curve, poor fit] |  |
| Cc1ccc(OCC(=O)N/N=C/c2c[nH]c3ccccc23)c([N+](=O)[O-])c1 | inconclusive: 3.66 µM [activator, partial curve, poor fit] |  |
| CCC(C)(C)NC(=O)C(c1ccccc1F)N(Cc1ccco1)C(=O)c1csnn1 (stereo not drawn) |  | inactive: 27.3% |
| COc1ccc(/C=C2\CCCC3C2=NN(C(=O)CSc2n[nH]c(N)n2)C3c2ccc(OC)cc2)cc1 (stereo not drawn) | inconclusive: 20.6 µM [falling, partial curve, poor fit] |  |
| COc1ccc(C(=O)Nc2ccc(N3CCN(C(=O)c4cccs4)CC3)cc2)cc1Br | inconclusive: 1.84 µM [falling, partial curve, poor fit] |  |
| Cc1cccc(OCC(=O)N2CCN(C(=O)COc3ccc(Cl)cc3)CC2)c1 | inconclusive: 20.6 µM [falling, single point] |  |
| O=C(CSc1nnc(-c2ccccc2F)o1)Nc1ccc(N2CCOCC2)cc1 | inconclusive: 3.66 µM [falling, full curve, poor fit] |  |
| O=C(CN1c2ccccc2Sc2ccccc21)NNC(=S)Nc1ccc(Cl)cc1Cl | inconclusive: 23.1 µM [falling, partial curve, poor fit] |  |

| Compound | Potency | activity change, negative = inhibition |
| --- | --- | --- |
| O=C(CSc1cccs1)Nc1ccc(Cl)cc1 | inconclusive: 10.3 µM [activator, partial curve] |  |
| O=C(COc1ccc(-c2nnco2)cc1)Nc1ccc(C(F)(F)F)cc1 | inconclusive: 32.6 µM [falling, single point] |  |
| Cc1cccc(N2CCN(C(=O)c3cccc(N4CCCC4=O)c3)C(C)C2)c1 (stereo not drawn) |  | inactive: -4.59% |
| COc1ccc(CNC(=O)CN(Cc2ccc(Cl)cc2)S(=O)(=O)c2ccccc2)cc1 | inconclusive: 32.6 µM [falling, single point] |  |
| CCCCC(=O)NNC(=S)NC(=O)c1ccc([N+](=O)[O-])cc1 | inconclusive: 8.2 µM [falling, partial curve, poor fit] |  |
| CSc1ncc(C(=O)Nc2c(C)cccc2C)c(-c2ccccc2)n1 | inconclusive: 25.9 µM [activator, single point] |  |
| COc1ccccc1CCNC(=O)c1ccc(-c2nc(CSc3ccc(C)cc3)c(C)o2)cc1 | inconclusive: 20.6 µM [falling, partial curve, poor fit] |  |
| CCN1/C(=C\C=C2\C(=O)N(C)C(=S)N2C)Sc2ccccc21 | inconclusive: 0.92 µM [activator, partial curve] |  |
| CCCCNC(=O)C(Cc1ccccc1)NS(=O)(=O)c1ccc2c(c1)c(=O)n(C)c(=O)n2C (stereo not drawn) | inconclusive: 1.84 µM [activator, partial curve, poor fit] |  |
| Cc1ccccc1-c1noc(-c2ccc(Cl)cc2)n1 | inconclusive: 20.6 µM [activator, partial curve] |  |
| CCc1ccc(/C=N/NC(=O)c2cc(-c3cccc([N+](=O)[O-])c3)n[nH]2)cc1 | inconclusive: 20.6 µM [activator, single point] |  |
| Cc1nc(N)sc1N=Nc1ccc(Br)cc1 | inconclusive: 0.517 µM [activator, full curve] |  |
| Cc1oc(-c2ccc(C(=O)NCc3ccc(Cl)cc3)cc2)nc1CS(=O)(=O)c1ccccc1 |  | inactive: -19.1% |
| O=C(Nc1ccccc1C(F)(F)F)c1cc(-c2ccco2)on1 | inconclusive: 25.9 µM [activator, partial curve, poor fit] |  |
| COc1ccccc1OCCC(=O)OCC(=O)NCc1ccc(F)cc1 |  | inactive: 1.65% |
| COC(=O)c1c(N)n(CCCN2CCOCC2)c2nc3ccccc3nc12 |  | inactive: -23.9% |
| CC(=O)c1c(C)nn(CC(O)COc2ccc3c(c2)CCC3)c1C (stereo not drawn) | active: 9.2 µM |  |
| CCn1cc(C(=O)N2CCCC(C(=O)c3ccc4ccccc4c3)C2)cn1 (stereo not drawn) | inconclusive: 23.1 µM [falling, partial curve, poor fit] |  |
| Cn1cc(S(=O)(=O)N2CCCC2)cc1C(=O)NCc1ccc(Cl)cc1 |  | inactive: -8.37% |
| OC(CN=c1sc2ccccc2n1CC(O)COc1ccccc1)COc1ccccc1 (stereo not drawn) | active: 23.1 µM |  |
| O=C(Nc1ccn(Cc2ccc(F)cc2)n1)c1ccncc1 | inconclusive: 29.1 µM [falling, single point] |  |
| Cn1nc(C(=O)OCc2ccc(F)cc2)c2ccccc2c1=O | inconclusive: 18.4 µM [falling, single point] |  |

At a glance, part of the list above:

| Compound | Potency | activity change, negative = inhibition |
| --- | --- | --- |
| CSc1ncc(C(=O)Nc2c(C)cccc2C)c(-c2ccccc2)n1 | inconclusive: 25.9 µM [activator, single point] |  |
| COc1ccccc1CCNC(=O)c1ccc(-c2nc(CSc3ccc(C)cc3)c(C)o2)cc1 | inconclusive: 20.6 µM [falling, partial curve, poor fit] |  |
| CCN1/C(=C\C=C2\C(=O)N(C)C(=S)N2C)Sc2ccccc21 | inconclusive: 0.92 µM [activator, partial curve] |  |
| CCCCNC(=O)C(Cc1ccccc1)NS(=O)(=O)c1ccc2c(c1)c(=O)n(C)c(=O)n2C (stereo not drawn) | inconclusive: 1.84 µM [activator, partial curve, poor fit] |  |
| Cc1ccccc1-c1noc(-c2ccc(Cl)cc2)n1 | inconclusive: 20.6 µM [activator, partial curve] |  |
| CCc1ccc(/C=N/NC(=O)c2cc(-c3cccc([N+](=O)[O-])c3)n[nH]2)cc1 | inconclusive: 20.6 µM [activator, single point] |  |
